Assay results from US6528481B1, “NG2/HM proteoglycan-binding peptides that home to angiogenic vasculature and related methods” (The Burnam Institute, priority 1999, dated 2003).
Results are given in words; binding and its absence hold for the method and conditions named. Some entries that bind do so weakly or less than the wild type. For some assays here: Sequences can lack the tags named with a protein.

Amino acid sequences for entries named in this document (tags omitted). Residues count along the entry.
UniProt Q00657, residues 30-1465: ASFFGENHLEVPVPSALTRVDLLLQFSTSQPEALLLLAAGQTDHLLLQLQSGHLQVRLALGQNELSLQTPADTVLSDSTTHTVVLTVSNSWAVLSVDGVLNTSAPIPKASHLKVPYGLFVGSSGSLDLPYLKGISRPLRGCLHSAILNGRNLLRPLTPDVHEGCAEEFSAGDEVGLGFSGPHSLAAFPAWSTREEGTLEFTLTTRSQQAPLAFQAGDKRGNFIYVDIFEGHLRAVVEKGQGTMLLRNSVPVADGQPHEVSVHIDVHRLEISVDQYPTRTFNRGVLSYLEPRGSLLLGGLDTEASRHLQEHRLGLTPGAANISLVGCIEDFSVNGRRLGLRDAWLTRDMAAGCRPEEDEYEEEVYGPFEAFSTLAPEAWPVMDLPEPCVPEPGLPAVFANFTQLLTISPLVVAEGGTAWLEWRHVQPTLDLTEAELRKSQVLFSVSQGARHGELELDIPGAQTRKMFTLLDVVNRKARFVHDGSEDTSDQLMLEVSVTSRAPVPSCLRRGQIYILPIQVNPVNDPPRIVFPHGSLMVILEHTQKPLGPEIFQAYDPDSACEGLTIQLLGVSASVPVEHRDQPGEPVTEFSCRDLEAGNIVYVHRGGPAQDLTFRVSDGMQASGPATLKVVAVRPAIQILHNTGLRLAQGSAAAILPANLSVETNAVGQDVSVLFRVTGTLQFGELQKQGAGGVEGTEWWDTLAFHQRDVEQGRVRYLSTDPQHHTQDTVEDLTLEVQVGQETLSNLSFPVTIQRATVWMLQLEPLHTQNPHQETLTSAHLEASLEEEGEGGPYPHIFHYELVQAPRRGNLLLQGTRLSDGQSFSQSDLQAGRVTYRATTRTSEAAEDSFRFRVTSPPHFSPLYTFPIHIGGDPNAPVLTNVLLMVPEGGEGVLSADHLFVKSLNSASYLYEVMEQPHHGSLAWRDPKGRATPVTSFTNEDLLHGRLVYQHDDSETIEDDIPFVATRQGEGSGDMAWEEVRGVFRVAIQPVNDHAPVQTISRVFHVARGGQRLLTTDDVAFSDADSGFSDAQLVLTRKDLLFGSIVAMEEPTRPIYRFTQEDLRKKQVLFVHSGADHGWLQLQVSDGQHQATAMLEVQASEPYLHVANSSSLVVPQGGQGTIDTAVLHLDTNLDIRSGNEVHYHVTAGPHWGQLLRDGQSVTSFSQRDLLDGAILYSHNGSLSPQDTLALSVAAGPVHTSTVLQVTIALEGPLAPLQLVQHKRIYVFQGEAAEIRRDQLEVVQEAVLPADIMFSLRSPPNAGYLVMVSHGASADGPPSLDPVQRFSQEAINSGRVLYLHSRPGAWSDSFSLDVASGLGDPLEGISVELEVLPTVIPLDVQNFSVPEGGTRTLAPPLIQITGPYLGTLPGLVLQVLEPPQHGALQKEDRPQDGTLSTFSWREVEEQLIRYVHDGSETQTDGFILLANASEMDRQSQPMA

What was measured:
[1] = target: recombinant fragment of rat NG2 consisting of the N-terminal two-thirds of the extracellular domain (NG2EC delta 3) (rat) (UniProt Q00657); assay: phage panning on NG2-coated wells, round III; table 'Selection of NG2-binding Phage'
[2] = target: recombinant fragment of rat NG2 consisting of the N-terminal two-thirds of the extracellular domain (NG2EC delta 3) (rat) (UniProt Q00657); assay: phage panning on NG2-coated wells, round IV; table 'Selection of NG2-binding Phage'; number of clones in parentheses
[3] = target: recombinant fragment of rat NG2 consisting of the N-terminal two-thirds of the extracellular domain (NG2EC delta 3) (rat) (UniProt Q00657); assay: purified phage on NG2-coated microtiter wells, bound phage counted as colonies
[4] = target: recombinant fragment of rat NG2 consisting of the N-terminal two-thirds of the extracellular domain (NG2EC delta 3) (rat) (UniProt Q00657); assay: phage panning on NG2-coated wells, round V; table 'Selection of NG2-binding Phage'; number of clones in parentheses
[5] = target: recombinant fragment of rat NG2 consisting of the N-terminal two-thirds of the extracellular domain (NG2EC delta 3) (rat) (UniProt Q00657); assay: phage binding to NG2-coated wells competed by increasing soluble NG2 fragment
[6] = target: recombinant fragment of rat NG2 consisting of the N-terminal two-thirds of the extracellular domain (NG2EC delta 3) (rat) (UniProt Q00657); assay: phage binding and soluble NG2 competition on NG2-coated wells
[7] = target: recombinant fragment of rat NG2 consisting of the N-terminal two-thirds of the extracellular domain (NG2EC delta 3) (rat) (UniProt Q00657); assay: phage panning on NG2-coated wells
[8] = target: recombinant fragment of rat NG2 consisting of the N-terminal two-thirds of the extracellular domain (NG2EC delta 3) (rat) (UniProt Q00657); assay: phage panning on NG2-coated wells, round III; table 'Selection of NG2-binding Phage'; number of clones in parentheses
[9] = target: recombinant fragment of rat NG2 consisting of the N-terminal two-thirds of the extracellular domain (NG2EC delta 3) (rat) (UniProt Q00657); assay: solid-phase assay: soluble NG2 fragment on GST-fusion-coated wells, anti-NG2 polyclonal and 125I anti-rabbit IgG
[10] = target: recombinant fragment of rat NG2 consisting of the N-terminal two-thirds of the extracellular domain (NG2EC delta 3) (rat) (UniProt Q00657); assay: competition: soluble GST fusion against …-phage on NG2-coated wells
[11] = target: recombinant fragment of rat NG2 consisting of the N-terminal two-thirds of the extracellular domain (NG2EC delta 3) (rat) (UniProt Q00657); assay: conclusion of the GST-peptide fusion assays (Example III)
[12] = target: recombinant fragment of rat NG2 consisting of the N-terminal two-thirds of the extracellular domain (NG2EC delta 3) (rat) (UniProt Q00657); assay: competition: soluble GST fusion against …-phage on NG2-coated wells; remark: listed apart in the source

## DLLAVSWLRA (peptide, not shown: large carriers) [phage displaying … (SEQ ID NO: 6)]
[1]
  binding: binds

## FWTERAGWAY (peptide, not shown: large carriers) [phage displaying … (SEQ ID NO: 9)]
[1]
  binding: binds

## TAASGVRSMH (peptide, not shown: large carriers)
[2]
  binding: binds
[3]
  binding: binds
[4]
  binding: binds
[5]
  binding: binds
[1]
  binding: binds
[6]
  binding: binds
[7]
  binding: binds

## AGQTLTASGD (peptide, not shown: large carriers) [phage displaying … (SEQ ID NO: 5)]
[1]
  binding: binds

## AGTRMSWEVL (peptide, not shown: large carriers) [phage displaying … (SEQ ID NO: 11)]
[1]
  binding: binds

## GGGTRAGMKY (peptide, not shown: large carriers) [phage displaying … (SEQ ID NO: 3)]
[8]
  binding: binds

## LTLRWVGLMS (peptide, not shown: a dimerising Fc or GST)
[9]
  binding: binds
[10]
  binding: binds
[11]
  binding: binds
[12]
  binding: binds

## TAASGVRSMH (peptide, not shown: a dimerising Fc or GST)
[9]
  binding: binds
[10]
  binding: binds
[11]
  binding: binds
[12]
  binding: binds

## VSRSSRWGSI (peptide, not shown: large carriers) [phage displaying … (SEQ ID NO: 12)]
[1]
  binding: binds

## LTLRWVGLMS (peptide, not shown: large carriers)
[2]
  binding: binds
[3]
  binding: binds
[4]
  binding: binds
[5]
  binding: binds
[1]
  binding: binds
[6]
  binding: binds
[7]
  binding: binds

## MVWSKGPLFL (peptide, not shown: large carriers) [phage displaying … (SEQ ID NO: 10)]
[1]
  binding: binds

## AQGIVLQLAL (peptide, not shown: large carriers) [phage displaying … (SEQ ID NO: 14)]
[1]
  binding: binds

## WGKIEDPLRA (peptide, not shown: large carriers) [phage displaying … (SEQ ID NO: 4)]
[1]
  binding: binds

## AIHSELMWVS (peptide, not shown: large carriers) [phage displaying … (SEQ ID NO: 8)]
[1]
  binding: binds

## SAERGVVAMS (peptide, not shown: large carriers) [phage displaying … (SEQ ID NO: 7)]
[1]
  binding: binds

## DAHVLVPRTP (peptide, not shown: large carriers) [phage displaying … (SEQ ID NO: 13)]
[1]
  binding: binds

## LSPLLSPATA (peptide, not shown: large carriers) [phage displaying … (SEQ ID NO: 15)]
[1]
  binding: binds
